Source: paper PMC10035389, “Safety, Tolerability, and Pharmacokinetics of TAK-931, a Cell Division Cycle 7 Inhibitor, in Patients with Advanced Solid Tumors: A Phase I First-in-Human Study” (Cancer Research Communications, 2022)

System: patients with advanced solid tumors
Experiment: Safety and tolerability (adverse events, NCI CTCAE v4.03), phase I dose-escalation study
Type: in vivo, human
Conditions: all schedules, range
From the text: This was a phase I, open-label, dose-escalation study of single-agent TAK-931. Dose escalation of TAK-931 was cohort based with an adaptive design using Bayesian logistic regression modeling (BLRM) with pharmacokinetic guidance. BLRM also guided MTD estimation from the second dose. Patients were enrolled in one of four dosing schedules (A, B, D, or E; Supplementary Fig. S1) to receive TAK-931. Two additional schedules were planned (C and F) but no patients were enrolled. Schedule A included an initial accelerated escalation phase. […] A safety expansion was permitted once MTD had been determined. […]
DLTs included: cycle 1 grade ≥3 hematologic and non-hematologic events or grade 2 non-hematologic events considered by the investigator to be TAK-931-related, grade 2 ejection fraction decrease, >2 weeks delay in initiating cycle 2 (1 week for schedules D and E), and >50% TAK-931 dose reduction in cycle 1 due to treatment-related adverse events (AEs; see Supplementary Materials and Methods for full DLT criteria). Toxicity was evaluated by NCI Common Terminology Criteria for Adverse Events (version 4.03). Tumor response was measured using the RECIST (version 1.1) ([16]). […]

SMILES: Cc1n[nH]cc1-c1cc2nc([C@@H]3CC4CCN3CC4)[nH]c(=O)c2s1 [TAK-931, simurosertib]
- Mean treatment duration (4–469): 86.3 days
- Median relative dose intensity (29%–100%): 95.0%
